B1: il10ra_site1_normal_mot_e1dd4851c59bc1cdde016f988f6856bd_0001_1_000000200_0001_16_31_H_._ems_3hM_201_0001_0000600034_0000002_0 (protein)
chain: NEEQERAEDALRASARFLEEANVDPRLVELMIQFQARALQHLIQNPENQEFVQEVAEKLIEEVCS
B2: il10ra_site1_normal_mot_HHH_b2_07521_000000141_0001_20_37_H_._HHH_b2_02707_0001_0000300027_0000001_0_af2pred_0001 (protein)
chain: SSSSNAEEAVRLALRAAKHAVRANDPERVRLALKMARALAESANDEEAQRLVEEVAEEIEKSSSS
B3: il10ra_site1_sap_16_mot_HHH_b2_00984_000000042_0001_1_20_H_._HHH_b1_03130_af2_0001_0000100010_0000001_0_0001_af2pred_0001 (protein)
chain: SSSSDERERRAVELLLESAKRIPDPELAEAALRLAREAAELLGDPELEQLVEEVEEELEENSSSS
B4: il10ra_site1_sap_15_mot_HHH_b2_00440_000000044_0001_22_38_H_._HHH_b2_01428_0001_0000200021_0000001_0_0001 (protein)
chain: SSSSDAEEYIRLTKRFIEWLLKEGDEEAARYFLRAARDIAEKEGDPEVRELVEEIEELIDSSSSS
B5: il10ra_site1_sap_23_mot_HHH_b2_06321_af2_000000133_0001_42_55_H_._HHH_b1_02866_0001_0000400038_0000001_1_0001 (protein)
chain: SSSSNEERRRAMELAERITELDQEGNKEEARELVEELEQLAKELNNWAFEFVARLLERIINSSSS
B6: il10ra_site1_normal_mot_HHH_b2_03220_af2_000000223_0001_23_40_H_._HHH_b2_00965_0001_0000200011_0000001_0 (protein)
chain: SSSSSTEEREEVWELIREALHIDDPEERRRVLEEALELAEELNNLLLQFSIRLALRDVGSSSSSS
B7: il10ra_site1_normal_mot_HHH_b2_00277_af2_000000172_0001_1_17_H_._HHH_b1_06276_0001_0000100006_0000001_0_af2pred_0001 (protein)
chain: SSSSSSTEEEVEELLEEAKRIEDPEERSYVLTEAWALAYRLNDPELEREIEEVAKRLTSSSSSSS
B8: il10ra_site1_normal_mot_HHH_b2_03183_af2_000000055_0001_40_56_H_._HHH_b2_02326_0001_0000600061_0000001_0 (protein)
chain: SSSSDEQELAEALVRLIRQAIEAGDERSAEILLLSLEILAEELNDPELRELLEELQELLEGSSSS
B9: il10ra_site1_normal_mot_HHH_b2_07145_000000158_0001_24_40_H_._HHH_b1_06041_0001_0000300053_0000001_0 (protein)
chain: SSSSEEVFEFVKRFIERIVELLRNGDPEEAEKLLEEVKEFAEENNNPALLFSIRHLERVVNSSSS
B10: il10ra_site1_normal_mot_HHH_b1_07278_000000273_0001_1_20_H_._637cc8c69280e3cc9e9840e2bee06d3a_0001_1_0001_0000500007_0000001_0 (protein)
chain: SVEELLEELEKRNYIFVRSLRILLEQLREDPNDEAVREALRHLERIAKELGDPLLEEILELIIEG
B11: il10ra_site1_sap_22_mot_9c3e5e2d2b9ffb70dc788f52fbfab6d5_0001_1_000000198_0001_1_14_H_._HHH_b1_02251_0001_0000200020_0000002_0_0001 (protein)
chain: SSSSSREERLEKLLEELEEALERGDWERAVRLAQEAVRLAFRANDPEFFQELWELFKRAVSSSSS
B12: il10ra_site1_normal_mot_HHH_b1_05056_000000217_0001_1_20_H_._HHH_b2_05193_0001_0000100002_0000001_0 (protein)
chain: SSSSSDEEEVERLLREAEERRQEGDRERVAELLLEALRIAFETNNKEALQLIWEVVRRLASSSSS
B13: il10ra_site1_sap_16_mot_HHH_b2_00943_af2_000000149_0001_1_17_H_._HHH_b1_05639_0001_0000200008_0000001_0_0001 (protein)
chain: SSSSTEELFEALERLAELDREGDEEEFEELVEEAERLAKENGDRLFLIQIEFLLEIFRKAHSSSS
B14: il10ra_site1_normal_mot_5fda0655e6834f3f331eaa9f580e88ed_0001_af2_000000239_0001_36_50_H_._HHH_b1_08295_0001_0000400016_0000002_0 (protein)
chain: SSSDEEEEERLREFVEELVEKYGLSEQVELELEAAVRLLLAAGVSEEFIKLALENAVRLKKSSSS
B15: il10ra_site1_normal_mot_HHH_b1_05357_000000034_0001_23_39_H_._HHH_b2_06351_0001_0000200023_0000001_0 (protein)
chain: SSSSSELEELLREAEELLEEGNPHEASHVLIRAYAIAHERNDEEAKKRIQEVARKAARLAASSSS
B16: il10ra_site1_sap_25_mot_19263c5dd3522ffa6b1c765d9be26258_0001_1_000000064_0001_15_32_H_._26de121311cec1c6b0b9f4dad300ffe3_0001_1_0001_0000100001_0000001_0_0001_ … (protein)
chain: SSSSSDYEERIEELLEEAKRTPDEEEAKELLQEAAKLAVEAGNPELIEEIIRVYAEIAKSSSSSS
B17: il10ra_site1_normal_mot_HHH_b1_05357_000000034_0001_23_39_H_._HHH_b2_07549_0002_0000300038_0000001_0_af2pred_0001 (protein)
chain: SSSSSDEEIREEVEELLEEAKQIEDRKRLAELAVRAIALANELRDPELRRLVREALRRLLSSSSS
B18: il10ra_site1_normal_mot_HHH_b1_08009_000000194_0001_1_19_H_._HHH_b1_00833_0001_0000100001_0000001_0 (protein)
chain: SSSSTVEFTVEFVLELVEELLERGDPEQARFLLERLERVLEDAGDEELLRLVRELLEEIEKSSSS
B19: il10ra_site1_normal_mot_HHH_b2_02053_af2_000000006_0001_3_19_H_._HHH_b1_02427_0001_0000200022_0000001_0 (protein)
chain: SSSSDAEELYELSRKALELLANGNPEEARKLLEEAQEIAEEANNQVILFNIRFLLRQVERQSSSS

The list shows a part of the results.

The target of the assay is il10ra, Q13651. Nature of the assay: yeast display titration.
In the case of B1, the “apparent Kd” value was “inactive: no binding seen”.

In the case of B2, the “apparent Kd” value is “inactive: no binding seen”.

On to B3, for which the “apparent Kd” value is “inactive: no binding seen”.

In the case of B4, the “apparent Kd” value is “inactive: no binding seen”.

Turning to B5, the “apparent Kd” value is “inactive: no binding seen”.

For B6, the “apparent Kd” value was “inactive: no binding seen”.

Consider B7, for which the “apparent Kd” value was “inactive: no binding seen”.

With B8, the “apparent Kd” value is “inactive: no binding seen”.

Turning to B9, the “apparent Kd” value was “inactive: no binding seen”.

On to B10, for which the “apparent Kd” value is “inactive: no binding seen”.

Take B11: the “apparent Kd” value was “inactive: no binding seen”.

With B12, the “apparent Kd” value is “inactive: no binding seen”.

Take B13: the “apparent Kd” value is “inactive: no binding seen”.

On to B14, for which the “apparent Kd” value was “inactive: no binding seen”.

Regarding B15, the “apparent Kd” value was “inactive: no binding seen”.

Regarding B16, the “apparent Kd” value was “inactive: no binding seen”.

For B17, the “apparent Kd” value was “inactive: no binding seen”.

For the molecule B18, the “apparent Kd” value was “inactive: no binding seen”.

Take B19: the “apparent Kd” value is “inactive: no binding seen”.

Source of the values: paper PMC10163288.
